PubChem BioAssay AID1259254 – NCATS | 2017

Test: 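Gene knock-downs that lead to re-replication, shown by excess G2 DNA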 (primary screen)
Cell system: human HCT116 colorectal cancer cells
Reagent: single siRNA against human genes
Time to read-out: 3 days
Read-out: 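Nuclei stained with Hoechst and imaged; cell-cycle phase assigned by DNA content; G2 share scaled per plate, non-targeting siRNA 0%, GMNN siRNA 100%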
Scale: G2 robust z-score and G2 cells, % of GMNN control: higher = more G2 cells, more excess DNA replication; raw share of cells in G2: higher = larger share of cells with G2 DNA content
Rule for the call: 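An siRNA counts as active if its G2 robust z-score lies at least 5 MADs above the screen median; here such calls match roughly 38% of GMNN control or more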
The deposit covers about 59,000 reagents; shown is an unselected part. Over the whole deposit, about 1,550 (2.6%) got an active call. 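G2 share is only a proxy for re-replication; each gene was hit by three separate siRNAs, and active genes were retested.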 The raw values are shown without normalisation. A number with no mark means an inactive call. The numbers tell different reagents against one gene apart. Not stated in the record: the amount of reagent.

| target | reagent | G2 robust z-score | G2 cells, % of GMNN control | raw share of cells in G2 (%) |
| --- | --- | --- | --- | --- |
| ZNF84 (zinc finger protein 84) | 1 | -0.441 | -0.132 | 3.48 |
| ZNF84 (zinc finger protein 84) | 2 | -0.274 | 1.04 | 6.45 |
| ZNF84 (zinc finger protein 84) | 3 | 0.118 | 3.8 | 4.93 |
| ZNF324B (zinc finger protein 324B) | 1 | -0.543 | -0.851 | 2.8 |
| ZNF324B (zinc finger protein 324B) | 2 | 6.95 (active) | 51.8 | 21.2 |
| ZNF324B (zinc finger protein 324B) | 3 | -0.793 | -2.61 | 2.61 |
| PMF1 (polyamine modulated factor 1) | 1 | 0.0259 | 3.15 | 6.22 |
| PMF1 (polyamine modulated factor 1) | 2 | 0.109 | 3.73 | 5.68 |
| PMF1 (polyamine modulated factor 1) | 3 | 1.19 | 11.3 | 7.41 |
| SCN10A (sodium voltage-gated channel alpha subunit 10) | 1 | -0.357 | 0.456 | 5.45 |
| SCN10A (sodium voltage-gated channel alpha subunit 10) | 2 | -0.748 | -2.29 | 4.01 |
| SCN10A (sodium voltage-gated channel alpha subunit 10) | 3 | -0.0614 | 2.54 | 5.36 |
| RNF145 (ring finger protein 145) | 1 | -0.58 | -1.12 | 4.23 |
| RNF145 (ring finger protein 145) | 2 | 0.637 | 7.45 | 7.43 |
| RNF145 (ring finger protein 145) | 3 | 5.28 (active) | 40.1 | 25.1 |
| COPS2 (COP9 signalosome subunit 2) | 1 | 7.24 (active) | 53.9 | 24 |
| COPS2 (COP9 signalosome subunit 2) | 2 | 4.17 | 32.3 | 16.6 |
| COPS2 (COP9 signalosome subunit 2) | 3 | -0.117 | 2.14 | 5.51 |
| TRMT61A (tRNA methyltransferase 61A) | 1 | 0.718 | 8.02 | 7.31 |
| TRMT61A (tRNA methyltransferase 61A) | 2 | 0.624 | 7.36 | 5.52 |
| TRMT61A (tRNA methyltransferase 61A) | 3 | -0.731 | -2.18 | 1.18 |
| DNAI1 (dynein axonemal intermediate chain 1) | 1 | 1.56 | 13.9 | 12.5 |
| DNAI1 (dynein axonemal intermediate chain 1) | 2 | 0.623 | 7.35 | 6.63 |
| DNAI1 (dynein axonemal intermediate chain 1) | 3 | -0.816 | -2.78 | 3.08 |
| ZNF684 (zinc finger protein 684) | 1 | 0.0651 | 3.43 | 4.27 |
| ZNF684 (zinc finger protein 684) | 2 | 2.22 | 18.6 | 9.63 |
| ZNF684 (zinc finger protein 684) | 3 | 0.0507 | 3.32 | 4.69 |
| ZC4H2 (zinc finger C4H2-type containing) | 1 | 0.112 | 3.76 | 5.83 |
| ZC4H2 (zinc finger C4H2-type containing) | 2 | -0.349 | 0.514 | 4.71 |
| ZC4H2 (zinc finger C4H2-type containing) | 3 | 0.0506 | 3.32 | 4.08 |

Looked up above.
Under “G2 robust z-score”, DNAI1 (dynein axonemal intermediate chain 1) #2 shows 0.623
Under “G2 robust z-score”, DNAI1 (dynein axonemal intermediate chain 1) #1 shows 1.56
